Assay results as given in US20250188110A1, “SPECIFIC SMALL MOLECULE INHIBITORS THAT BLOCK KMT9 METHYLTRANSFERASE ACTIVITY AND FUNCTION” (ALBERT-LUDWIGS-UNIVERSITÄT FREIBURG, priority 2021, published 2025).
Where two headings read alike, the source gives them in different places. The match of structure and compound is tentative. Values belong to the compound of their own block, whether it stands above or below them.

Sequences of proteins named here, by UniProt entry; tags and fusion partners are left off. Residues count along the entry.
UniProt Q9Y5N5, whole entry: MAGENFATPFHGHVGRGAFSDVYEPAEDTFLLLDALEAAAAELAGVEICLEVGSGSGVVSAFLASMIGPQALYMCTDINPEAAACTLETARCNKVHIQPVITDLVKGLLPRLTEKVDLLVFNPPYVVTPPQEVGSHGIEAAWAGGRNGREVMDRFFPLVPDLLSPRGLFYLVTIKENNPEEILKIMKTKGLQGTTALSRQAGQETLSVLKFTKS
UniProt Q9UI30, 1-120 isoform 2 partner: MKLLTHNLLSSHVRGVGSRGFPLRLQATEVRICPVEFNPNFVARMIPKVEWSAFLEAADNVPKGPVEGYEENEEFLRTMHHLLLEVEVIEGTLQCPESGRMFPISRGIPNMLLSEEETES

Assays:
KMT9 [1] = target: T1, KMT9 (Homo sapiens, UniProt Q9Y5N5); experiment: KMT9 methyltransferase inhibition assay, MTaseGlo luminescence (from entry 155); settings: 100 nM KMT9, 5 μM ETF1, 1 μM SAM
Method: For the compounds from entry 155 on in Table 1, the following procedure was used to determine IC50 values: The assay was carried out in white, opaque 384-well OptiPlates (PerkinElmer). For IC50 determination, a 2.5x substrate mix (final assay concentrations: 5 μM ETF1, 1 μM SAM and 1x MTaseGlo Reagent), a 2.5x KMT9 solution (final assay concentration 100 nM) and a 5x inhibitor stock 1:1 dilution series (concentration according to the desired range; dilution series was prepared in assay buffer containing 10% DMSO to obtain a final DMSO concentration of 2% in the assay) were prepared. 2 μL of 5x inhibitor stock and 4 μL of 2.5x KMT9 were pipetted, the plate was spun down at 700 rpm for 1 min using a Hettich UNIVERSAL 320 centrifuge and incubated at room temperature (around 25° C.) for 15 min. The reaction was initiated by adding 4 μL of 2.5x substrate mix, the plate was spun down as described before and incubated at 30° C. for 2 h. Afterwards, 10 μL of 2× MTaseGlo Detection solution was added, the plate was centrifuged as described above and incubated for 60 min at room temperature. Luminescence was measured using a PerkinElmer EnVision 2102 Multilabel Reader. Calculation of inhibition and data fitting was carried out as for entries 1-154. described above.
For the results of the methyltransferase inhibition assay shown as “Inhibition” in Table 1, “I” represents an IC50 less than 0.1 μM, “II” represents an IC50 equal or higher than 0.1 μM and less than 1 μM, “III” represents an IC50 equal or higher than 1 µM and less than 10 µM and “IV” represents an IC50 equal or higher than 10 µM

KMT9 [2] = target: T1, KMT9; experiment: Microscale thermophoresis (MST) KMT9 binding
Method: To determine the binding affinity of the compounds according to the present invention and KMT9, microscale thermophoresis (MST) analysis was performed with a NanoTemper Monolith NT.115 instrument (NanoTemper Technologies GmbH). KMT9 was labelled with a RED-Tris-NTA labelling kit (NanoTemper Technologies GmbH) based on the manufacturer's instructions. Buffer including 25 mM HEPES (pH 7.5), 100 mM NaCl, 1 mM DTT and 0.05% Tween was used for the reaction buffer. Varying concentrations of the tested compounds of formula (I) as indicated in Table 1 were titrated against His-tag labelled KMT9 proteins (20 nM). Samples were loaded into standard Capillaries (NanoTemper Technologies GmbH) and MST measurements were performed using 40% MST power and 100% LED power. For each set of binding experiments, MST measurement was carried out with Binding Affinity module in MO.Control program under Nano-RED Excitation. Datasets were processed with the MO.Affinity Analysis software (NanoTemper Technologies GmbH).
For the results of the microscale thermophoresis (MST) assay shown as “MST” in Table 1, “A” represents a Kd of equal to or less than 10 nM (Kd≤10 nM); “B” represents a Kd of greater than 10 nM and equal to or less than 100 nM (10 nM<Kd<100 nM); “C” represents a Kd of greater than 100 nM and equal to or less than 1000 nM (100 nM<Kd ≤ 1000 nM); “D” represents a Kd of greater than 1000 nM (1000 nM<Kd).

Cal29 cells = experiment: Inhibition of cell proliferation, X-Celligence RTCA, Cal29; settings: for in vivo (Cal29 Cells), anti-proliferation effect: 5000 cells/well
Method: Cell proliferation was determined using X-Celligence RTCA system (Roche). For real-time recording of HT-1376, resp. Cal29 cell proliferation, 5000 cells/well were seeded in 16 well E-plates (Roche). Cells were seeded in the presence of DMSO or the tested compound of formula (I) as indicated in Table 124 h before seeding in E-plates. Cell indices were automatically recorded every 15 minutes. Relative velocities represent the change of the cell index over time.
For the results of the HT-1376, resp. Cal29 cell proliferation assay shown as “in vivo (HT-1376 Cells)” and “in vivo (Cal29 Cells)” in Table 1, “***” represents an anti-proliferation effect at less than or equal to 10 μM; “**” represents an anti-proliferation effect at greater than 10 µM and less than or equal to 30 μM; “*” represents an anti-proliferation effect at greater than 30 µM and less than or equal to 100 μM.

KMT9 [3] = target: T1, KMT9; experiment: KMT9 thermal shift assay (SyproOrange)
Method: The assay was carried out in 96-well Hard-Shell PCR plates (Bio-Rad Laboratories Inc.). Assay buffer consisted of 50 mM BTP, 1 mM MgCl2 and 1 mM DTT at a pH of 8.5 (adjusted using 1 M HCl and 1 M NaOH). 20X inhibitor stock (in DMSO), 2X enzyme stock and 4X SyproOrange (SO) stock (both in assay buffer) were prepared. 1 μL of 20X compound, 4 μL of assay buffer, 10 μL of 2X KMT9 and 5 μL of 4X SO were pipetted. For the no-compound control, 20X inhibitor stock was replaced by DMSO. The final volume was 20 μL. The plate was spun down at 700 rpm for 1 min using a Hettich UNIVERSAL 320 centrifuge and incubated at 25° C., shaking at 600 rpm. After incubation, the plate was spun down for 1 min at 700 rpm and measurement was conducted using a CFX96 Touch Real-Time PCR Detection System (Bio-Rad Laboratories Inc.). The plate was equilibrated at 20° C. for 4 min and then heated stepwise at a rate of 1° C. per 15 s until 95° C. After every step, fluorescence was measured in FRET mode. Calculation of melting points was conducted by a Boltzman sigmoidal model using GraphPad Prism 7.0.
For the results of the thermal shift assay shown as “Thermal shift” in Table 1, “++++” represents a ΔTm of greater 20 K, “+++” represents a ΔTm of greater than 15 K and less than or equal to 20 K (15 K<ΔTm≤20 K); “++” represents a ΔTm of greater than 10 K and less than or equal to 15 K (10 K<ΔTm ≤ 15 K); “+” represents a ΔTm of equal to or less than 10 K (ΔTm≤10 K).

PC3M cells = experiment: Inhibition of cell viability, MTT assay, PC3M; settings: for in vivo (MTT, PC3M Cells), cell viability effect: 7 days
Method: Inhibition of cell viability (“in vivo (MTT, PC3M cells)”)
MTT assays were performed with the CellTiter 96 Non-Radioactive Cell Proliferation Assay (MTT) kit (G4000, Promega) according to the manufacturer's instructions. Briefly, 100 μl of cell culture medium containing inhibitor were dispensed per well into 96-well tissue culture dishes and allowed to equilibrate for 30 min at room temperature. 100 μl of cell suspension were added per well (resulting in 300 cells per well). Cells were allowed to adhere for 30 min at room temperature and then incubated at 37° C. (5% CO2) in a CellXpert incubator (Eppendorf). After 4 days, the medium was replaced with 100 μl of fresh cell culture medium containing inhibitor followed by incubation for additional 3 days. At the end of the culture period, 15 μl of Dye Solution per well were added, the plate incubated for 4 hours at 37° C. followed by addition of 100 μl of Solubilization Solution/Stop Mix per well and incubation for 1 hour at 37° C. Finally, the content of the 96-well dish was homogenized by pipetting up and down and assayed at 570 nm and 650 nm using a NanoQuant Infinite M200 Pro plate reader (TECAN). Absorption at 650 nm (background) was substracted from absorption at 570 nm and the resulting values were normalized to those of the DMSO control.
For the results of the cell viability assay shown as “in vivo (MTT, PC3M Cells)” in Table 1 “###” represents an effect at less than or equal to 1 μM; “##” represents an effect at greater than 1 μM and less than or equal to 3 μM; “#” represents an effect at greater than 3 μM.

KMT9 [4] = target: T1, KMT9; experiment: KMT9 methyltransferase inhibition assay, 3H-SAM scintillation (entries 1-154); settings: read-out: Inhibition; entries 1-154: 3H-SAM assay, 25 nM KMT9, 5 μM ETF1; tested form: TFA salt
Method: The assay was carried out in 0.5 mL Eppendorf tubes in duplicates. Assay buffer consisted of 50 mM BTP, 1 mM MgCl2, 1 mM DTT and 0.01% Triton-X^100 at a pH of 8.5 (adjusted using 1 M HCl and 1 M NaOH). 20X inhibitor stock (in DMSO), 2X enzyme stock and 4X substrate mix (both in assay buffer) were prepared. The substrate mix consisted of Tritium-labelled S-adenosylmethionine (3H-SAM), S-adenosylmethionine (SAM) and eukaryotic peptide chain release factor subunit1 (Homo sapiens, residues 140-275)(ETF1). Final assay concentrations were set to 25 nM KMT9, 0.3 μM 3H-SAM, 0.7 µM SAM and 5 μM ETF1. […] 5 μL of 4x substrate mix was added to initiate the reaction. The final reaction volume was 20 μL. For the positive control, the compound of formula (I) was replaced by DMSO; for the negative control, the compound of formula (I) was replaced by DMSO and KMT9 was replaced by assay buffer. The reaction mix was incubated in an Eppendorf thermomixer comfort at 30° C. for 2 h, shaking at 300 rpm. The reaction was quenched using 5 μL 50% trichloroacetic acid (TCA) and incubated at 25° C. for 5 minutes. […] The scintillation signal was measured for 3x 1 min using TriCarb 2910 TR (Perkin Elmer) scintillation counter in 3H CPM mode (LL: 0, UL: 18.6). Inhibition was calculated using the following formula: […]

[5] = read-out: Inhibition (IC50), MTaseGlo procedure (entries from 155)
[6] = read-out: MST (Kd), His-tag labelled KMT9 20 nM
[7] = read-out: MST, microscale thermophoresis, His-tag labelled KMT9 (20 nM), tested form: TFA salt
[8] = ΔTm, 500 µM compound, 2 μM KMT9, 5X SO, tested form: TFA salt

- IC50 (KMT9 [1]; [5]): 100 to 1000 nM
- Kd (KMT9 [2]; [6]): < 10 nM
Compound: Nc1nc(Cl)nc2c1c(-c1nccs1)cn2[C@@H]1C[C@H](C2CCN(CCc3ccccc3)CC2)[C@@H](O)[C@H]1O
- in vivo (Cal29 Cells), anti-proliferation effect (Cal29 cells): ** (an anti-proliferation effect at greater than 10 UM and less than or equal to 30 μM)
- Thermal shift (ΔTm) (KMT9 [3]; 500 µM compound, 2 μM KMT9): +++ (a ΔTm of greater than 15 K and less than or equal to 20 K (15 K<ΔTm≤20 K))

- IC50 (KMT9 [1]; read-out: Inhibition, IC50 class, MTaseGlo procedure (entries from 155 on)): 100 to 1000 nM
- Kd (KMT9 [2]; read-out: MST, His-tag labelled KMT9 20 nM, Kd class): < 10 nM
Compound: O=S(=O)(c1ccccc1)n1ccc(-c2cn([C@@H]3C[C@H](CNCCCNCCc4ccccc4)[C@@H](O)[C@H]3O)c3nc(Cl)ncc23)n1
- In vivo (Cal29 Cells) (Cal29 cells; anti-proliferation effect concentration class): *** (an anti-proliferation effect at less than or equal to 10 μM)
- In vivo (MTT, PC3M Cells) (PC3M cells; MTT viability effect concentration class): ## (an effect at greater than 1 μM and less than or equal to 3 μM)
- Thermal shift (KMT9 [3]; ΔTm class, 500 uM compound, 2 μM KMT9): +++ (a ΔTm of greater than 15 K and less than or equal to 20 K (15 K<ΔTm≤20 K))

- Kd (KMT9 [2]; [7]): > 1000 nM
- IC50 (KMT9 [4]): > 10000 nM
Compound: CNc1ncnc2c1ccn2[C@@H]1C[C@H](CNCCCNCCc2cccc(CCc3ccccc3)c2)[C@@H](O)[C@H]1O
- Thermal shift (KMT9 [3]; [8]): ++ (a ΔTm of greater than 10 K and less than or equal to 15 K (10 K<ΔTm ≤ 15 K))

- IC50 (KMT9 [1]; read-out: Inhibition, IC50 class, MTaseGlo procedure (entries from 155 on), tested form: TFA): 1000 to 10000 nM
- Kd (KMT9 [2]; read-out: MST, His-tag labelled KMT9 20 nM, Kd class, tested form: TFA): 100 to 1000 nM
Compound: Nc1ncnc2c1ccn2[C@@H]1C[C@H](C2CCNCC2)[C@@H](O)[C@H]1O
- Thermal shift (KMT9 [3]; ΔTm class, 500 uM compound, 2 μM KMT9, tested form: TFA): ++ (a ΔTm of greater than 10 K and less than or equal to 15 K (10 K<ΔTm ≤ 15 K))

The remaining lines, values behind:

Compound: CCNC(=O)NCCCNC(=O)[C@H]1O[C@@H](n2cnc3c(N)ncnc32)[C@H](O)[C@@H]1O [307 (206), (2S,3S,4R,5R)-5-(6-amino-9H-purin-9-yl)-N-(3-(3-ethylureido)propyl)-3,4-dihydroxytetrahydrofuran-2-carboxamide]
- Kd (KMT9 [2]; [7]): > 1000 nM
- IC50 (KMT9 [4]): > 10000 nM
- Thermal shift (KMT9 [3]; [8]): + (a ΔTm of equal to or less than 10 K (ΔTm≤10 K))

Compound: Nc1nc(Cl)nc2c1c(-c1ccn(Cc3ccccc3)n1)cn2[C@@H]1C[C@H](C2CCN(CC3CCCC3)CC2)[C@@H](O)[C@H]1O
- IC50 (KMT9 [1]; [5]): 100 to 1000 nM
- Kd (KMT9 [2]; [6]): < 10 nM
- in vivo (MTT, PC3M Cells), cell viability effect (PC3M cells): ## (an effect at greater than 1 μM and less than or equal to 3 μM)
- Thermal shift (ΔTm) (KMT9 [3]; 500 µM compound, 2 μM KMT9): ++++ (a ΔTm of greater 20 K)

Compound: Nc1nc(Cl)nc2c1c(-c1nccs1)cn2[C@@H]1C[C@H](C2CCN(Cc3ccccc3)CC2)[C@@H](O)[C@H]1O
- IC50 (KMT9 [1]; [5]): 100 to 1000 nM
- Kd (KMT9 [2]; [6]): < 10 nM
- in vivo (Cal29 Cells), anti-proliferation effect (Cal29 cells): ** (an anti-proliferation effect at greater than 10 UM and less than or equal to 30 μM)
- in vivo (MTT, PC3M Cells), cell viability effect (PC3M cells): ## (an effect at greater than 1 μM and less than or equal to 3 μM)
- Thermal shift (ΔTm) (KMT9 [3]; 500 µM compound, 2 μM KMT9): ++++ (a ΔTm of greater 20 K)
